Source: US9682050B2, “Methods of treating lactose intolerance” (Nogra Pharma Limited, priority 2012, dated 2017)
For at least one compound, name, drawing or mass did not settle the structure.

Key:
human lactase gene = assay: Lactase mRNA expression (qPCR) in Caco-2 cells stimulated with PPAR agonists; type: cell-based; conditions: concentration not given
Method: Caco-2 colonic adenocarcinoma cell lines were used. Caco-2 cells grew in Dulbecco's modified Eagle's medium (DMEM, Invitrogen, Cergy-Pontoise, France) supplemented with 20% foetal calf serum (FCS, Dutscher, Brumath, France), 1% penicillin-streptomycin (5 ml/l) (Invitrogen) and 1% non-essential amino acids (5 ml/l) (Invitrogen). All cell lines were cultured as confluent monolayers at 37° C. in a controlled, 5% CO2 atmosphere. Each week, the confluent monolayer were trypsinized (Invitrogen) and then replated after a 1:10 dilution. For the stimulation experiments, cells were placed in 6-well plates at a density of 1×10^6 cells per well. Serum deprivation was used 16 hours prior to stimulation in order to synchronize the cells.
The cells were treated with Compound 34 (1 mM and 30 mM), 5-ASA (30 mM), or pioglitazone (1 μM). […]
Total RNA were extracted with a Nucleospin RNA kit (Macherey-Nagel, Hoerdt, France). […] The purity of the RNA will be evaluated by UV spectroscopy on a Nanodrop system from 220 to 350 nm. […]
Transcripts of genes were estimated by quantitative PCR (qPCR) in order to confirm microarrays results. […] Quantification of qPCR signals was performed using ΔCt relative quantification method using GAPDH as a reference gene. The values were represented in terms of relative quantity of mRNA level variation or fold increase compared to control conditions. […]

[1] = system: PPAR semi deficient epithelial cells; assay: LCT gene expression in PPAR knock down (ShPPAR) Caco-2 cells; type: cell-based, human
Method: Transcripts of genes were estimated by quantitative PCR (qPCR) in order to confirm microarrays results. 1 μg of total RNA was reverse-transcripted into cDNA using the High Capacity cDNA Achive kit (Applied biosystems). qPCR was performed using an ABI PRISM 7000 sequence detection system (Applied Biosystem). Primer pairs for each transcript were chosen with qPrimer depot software. Quantification of qPCR signals was performed using ΔCt relative quantification method using GAPDH as a reference gene. The values were represented in terms of relative quantity of mRNA level variation or fold increase compared to control conditions.
PPARγ knock down IECs were obtained using the pSUPER.retro system (OligoEngine). Forward and reverse target sequences corresponding to nucleotides 105-123 of the human PPARg mRNA (5-′-GCCCTTCACTACTGTTGAC-3′ (SEQ ID NO: 1)) were cloned into the BglII/XhoI restriction sites of the pSUPERretro vector (pRS) giving the ShPPAR construct. A negative control pRS plasmid containing the sequence 5′-ACGCTGAGTACTTCGAAAT-3′ (SEQ ID NO: 2) targeted against the luciferase gene was also generated (ShLuc construct). Both constructions were transfected in Caco-2 cells using Nucleofector technology from Amaxa Biosystems, according to the manufacturer's protocol. […] The silencing of PPARg expression was checked by quantitative RT-PCR and western-blot analysis. […]

Structure (SMILES)	lactase gene expression (human lactase gene)	LCT gene expression in PPAR semi deficient epithelial cells [1]
CC(C)OC(=O)C(C)(C)Oc1ccc(C(=O)c2ccc(Cl)cc2)cc1 [Fenofibrate]	induced weakly and without significancy	
CCc1ccc(CCOc2ccc(CC3SC(=O)NC3=O)cc2)nc1 (centres unmarked) [pioglitazone]		kept their upregulatory effects
